Our source for the binding values is patent US6365364.

Sequences of proteins named here, by UniProt entry; tags and fusion partners are left off. A change or cut given only in a name is not applied to a line headed by its entry.
UniProt P00747: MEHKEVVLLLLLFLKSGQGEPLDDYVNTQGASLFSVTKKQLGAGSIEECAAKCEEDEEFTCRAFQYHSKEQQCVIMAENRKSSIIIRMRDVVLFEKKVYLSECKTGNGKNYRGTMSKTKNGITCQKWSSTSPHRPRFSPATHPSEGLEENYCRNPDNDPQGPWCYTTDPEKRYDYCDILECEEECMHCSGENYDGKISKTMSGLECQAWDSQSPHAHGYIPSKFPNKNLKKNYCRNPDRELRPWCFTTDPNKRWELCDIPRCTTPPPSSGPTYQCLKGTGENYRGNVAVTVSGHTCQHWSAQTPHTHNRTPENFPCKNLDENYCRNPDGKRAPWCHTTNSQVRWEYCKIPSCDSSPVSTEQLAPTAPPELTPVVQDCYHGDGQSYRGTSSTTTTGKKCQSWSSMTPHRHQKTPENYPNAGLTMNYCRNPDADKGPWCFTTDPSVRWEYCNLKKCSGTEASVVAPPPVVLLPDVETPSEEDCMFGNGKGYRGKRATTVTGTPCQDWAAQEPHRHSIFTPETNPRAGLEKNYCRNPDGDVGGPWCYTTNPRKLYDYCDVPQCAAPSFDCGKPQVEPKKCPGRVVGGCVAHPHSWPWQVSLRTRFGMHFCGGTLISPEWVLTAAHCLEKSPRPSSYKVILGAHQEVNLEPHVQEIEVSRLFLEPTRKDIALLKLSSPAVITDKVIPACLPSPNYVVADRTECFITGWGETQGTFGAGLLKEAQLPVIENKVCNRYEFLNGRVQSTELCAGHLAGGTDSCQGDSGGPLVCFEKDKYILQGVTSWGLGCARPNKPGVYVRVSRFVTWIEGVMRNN

The target of the assay is T1, bovine bone osteonectin (bovine) (UniProt P13213).
T1 sequence (looked up): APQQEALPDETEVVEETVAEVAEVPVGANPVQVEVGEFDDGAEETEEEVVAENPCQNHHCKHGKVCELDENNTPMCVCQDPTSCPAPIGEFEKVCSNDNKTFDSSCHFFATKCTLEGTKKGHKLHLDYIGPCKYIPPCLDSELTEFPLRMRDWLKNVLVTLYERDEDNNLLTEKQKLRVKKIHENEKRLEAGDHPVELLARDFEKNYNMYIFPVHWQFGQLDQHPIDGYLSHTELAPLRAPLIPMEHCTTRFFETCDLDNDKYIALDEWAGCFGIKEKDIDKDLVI
Put plainly: condition: 100 nM plasminogen (S741C), 2 µM bone osteonectin; TIRFS, osteonectin on a well coated with collagen type V.

Results are given in words; binding and its absence hold for the method and conditions named.

As for “recombinant plasminogen (S741C), fluorescein labeled (from UniProt P00747)”, the binding entry is on record as “no binding”.
